Experimental findings from patent US20100221758A1, “Sensors for Measuring Contaminants” (ECI Biotech Inc., priority 2007, published 2010) are described below.

“And” between values parts separate entries of the source, which are not always exact repeats. Equal values may be shown once.

This data set concerns M. hyorhinis. Briefly: Effect of divalent cations on Vmax, MCA-Leu substrate. The settings on record: 1 mM additive in place of 1 mM MgCl2. It is filed as biochemical, Mycoplasma hyorhinis. On the procedure: A presently preferred substrate is leu-MCA that had significant activity above the uninfected media control under the gentle conditions used to lyse the Mycoplasma (0.05% HECAMEG, 1 mM MgCl2, 100 mM NaCl, 40 mM Tris buffer, pH 8.5). The MCA-Leu substrate produces a signal level of 500 mOD in 30 minutes with M. hyorhinis, while M. hyorhinis has weak activity for arg-MCA.
Detergent lysis of M. hyorhinis with HECAMEG gives better signal than sonication. Manganese or magnesium also improves the signal to noise ratio.
`O=C(O)CN(CCN(CC(=O)O)CC(=O)O)CC(=O)O` [EDTA]: the “Signal/Noise, MCA-Leu Substrate” value is 11.68.
With `[Cl][Mn][Cl]` [MnCl2], the “Signal/Noise, MCA-Leu Substrate” value is 23.43 and 31.37.
`O=S(=O)([O-])[O-].[Mg+2]` [MgSO4]: the “Signal/Noise, MCA-Leu Substrate” value was 17.63.
